From PubChem BioAssay AID1347423 (Functional Genomics Laboratory (NCATS/FGL), 2020)
Hit rate of the full screen: of about 52,000 sequences, about 210 (0.4%) were called active.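 Rule for the calls: active = gene whose silencing raises cell survival under the drug, median off-target-corrected z-score across its silencing RNAs 2 or more; inactive = the rest.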 This is one part of the list.

Assay: Resistance to Poly (ADP-Ribose) Polymerase inhibitor: Gene Identification via Genome-wide siRNA Screen
Details: mouse BRCA2 R2336H ES cells, olaparib, CellTiter-Glo viability; hits give high values
Outline: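 Mouse BRCA2 R2336H ES cells were reverse-transfected with siRNA (20 nM final), treated at 48 h with 500 nM olaparib, and read by CellTiter-Glo after 72 h. Scores: MAD-based z per siRNA, median per gene, seed off-target correction.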
In the case of CGGAAAAAUGGAAGUAUAGTT against Gt4-1, the z-score was inactive: -0.708.
In the case of CCGACCAUCCCAAGUUAAATT against Olfr199, the z-score was inactive: -0.202.
In the case of GGCGGCUCCUUUCAACUUCTT against H2-Bf, the z-score was inactive: 0.111.
In the case of CCUUCUAGAUGUCUUAAGATT against Zfp41, the z-score was inactive: 0.959.
With GGGAGAGAUUCUUCUUCAGTT against BC027174 the z-score was inactive: 0.239.
For CCUUAAAGCACAGUUCAAUTT against Gca, the z-score was inactive: 0.519.
For GCUAGCUGGAAGACACAUATT against Seh1l, the z-score was inactive: -2.14.
With GGAGAAAUAGGAUGGUCACTT against Zfp46 the z-score was inactive: 3.71.
With CCUUAGUCGCUUUGUAUGGTT against Drp2 the z-score was inactive: 0.00509.
With CCGUGUGGUUAAAAACUUUTT against Nktr the z-score was inactive: 1.56.
With GGAGCCGUACAUCUUACACTT against Abhd1 the z-score was inactive: -1.27.
In the case of CGACUCCAUGUGGACUUAUTT against Gca, the z-score was inactive: 0.633.
With GGGAGAAGAUAUAAAAACUTT against Krt20 the z-score was inactive: 0.414.
For GCGGUUCUUUUCAGAGCACTT against Fbxo21, the z-score was inactive: 2.14.
In the case of GCUAACAAAGAUUCACCCATT against Aspn, the z-score was inactive: 1.44.
For “GGCAAUUCUGUGUGUCACUTT against 1700067I02Rik”, the z-score was inactive: -1.13.
For CCCUUACGACUUGGCUUUGTT against Atp6v0a1, the z-score was inactive: -1.85.
For GGCCUAUUUUAUCCACACUTT against Olfr64, the z-score was inactive: -1.9.
In the case of “GGAAGUGUAUUCAAGAAGUTT against 4932414K18Rik”, the z-score was inactive: 0.645.
In the case of GGCCAAACAACUGGUGAAGTT against Rdbp, the z-score was inactive: -3.1.
In the case of GGACAAAGAAGUGGAACCCTT against Adn, the z-score was inactive: -0.245.
In the case of GUCAUAAUGAGUCAUAGAATT against Olfr149, the z-score was inactive: 0.689.
With CCCUCUAUCCCUCUGUAAGTT against Grcc9 the z-score was inactive: 1.04.
In the case of CCUACAAUGAUUUUCUCAUTT against Impdh2, the z-score was inactive: -2.32.
In the case of GCUAGUCCAACUCAUCAUUTT against Olfr430, the z-score was inactive: -0.0182.
In the case of GGUGAUAUUAUACAUUCACTT against Rnd1, the z-score was inactive: 0.43.
In the case of GGUUAUAGACAUCCUUCAUTT against BC016076, the z-score was inactive: 0.742.
For GGAGGCACAGAGAUUGAAGTT against Sry, the z-score was inactive: 0.938.
In the case of GAUGCUGUAAUCUUGUGAATT against Sprrl3, the z-score was inactive: -0.206.
In the case of GGAACAUUUCUGGAUUGUUTT against Muc1, the z-score was inactive: -0.255.
In the case of GGAUGGAAGCACUGACUAUTT against Lyzl1, the z-score was inactive: -0.175.
With GCUGCCCUGAAGGAUAUACTT against Grn the z-score was inactive: 1.14.
In the case of GCACCUAUACAACCUCGUGTT against Nisch, the z-score was inactive: 0.731.
In the case of GCAUGAUCAGUCAGCACUATT against Nr1d2, the z-score was inactive: 0.405.
In the case of GGUUCUUUAAUGGGUUAUGTT against Tpd52l2, the z-score was inactive: -1.12.
In the case of GGGCAACAUUCUUCAGAAUTT against Defb5, the z-score was inactive: 0.23.
For CGAAUUGGAUAAUACCCAUTT against Tpte, the z-score was inactive: 0.836.
With GCACAUUUUACCAUUGCUATT against Hcfc1 the z-score was inactive: -0.129.
In the case of GGCCAUCUCCUUCAACUAUTT against Ugt2a1, the z-score was inactive: 0.413.
With GGCACAUUCAUGCAAUAAATT against Ctla2a the z-score was inactive: -1.67.
With GGAAAAUGUCCAUUACUUUTT against Acad9 the z-score was inactive: -0.938.
With GGAGAUCUUUCACAUGACCTT against Hcn3 the z-score was inactive: 0.487.
For GGCCAAAGUUUACCUUCUATT against Iars, the z-score was inactive: -3.02.
For CCUAUCUCCUAACUUAGUUTT against V1re12, the z-score was inactive: 0.575.
For GGUGAAGAGUGAUUUUAAUTT against Il10, the z-score was inactive: -0.388.
For GCGGCCUGUGAGAGUUUAUTT against Pcyt1a, the z-score was inactive: 1.92.
In the case of CCUUCGAUAAGAAUUACAATT against Rab34, the z-score was inactive: -1.28.
For GGGAAUGAUUAAGCUAGCCTT against Acvr1b, the z-score was inactive: 0.261.
With GGGUUCACAUGGCAUAGUCTT against Zfp1 the z-score was inactive: 0.034.
In the case of “CCUAAAUUUCCAACAGUCCTT against 4930429O20Rik”, the z-score was inactive: 0.45.
In the case of GGUAAAGGUGGCUUUGAGATT against Olfr975, the z-score was inactive: -0.626.
For GGAAGAGAGAUUCCUAUAGTT against Spc18, the z-score was inactive: -2.17.
With GCACAUGUCUGUGAUUCAATT against Siat8a the z-score was inactive: 0.906.
